Measurements: PMC8495398
These are yes or no findings as the source states them, for the method shown. In cells and extracts the contact can be indirect.

Target: T1, Plasticity-related gene 1 (PRG-1) protein (rat (endogenous in hippocampus)) (UniProt Q7TMB7)
T1 sequence: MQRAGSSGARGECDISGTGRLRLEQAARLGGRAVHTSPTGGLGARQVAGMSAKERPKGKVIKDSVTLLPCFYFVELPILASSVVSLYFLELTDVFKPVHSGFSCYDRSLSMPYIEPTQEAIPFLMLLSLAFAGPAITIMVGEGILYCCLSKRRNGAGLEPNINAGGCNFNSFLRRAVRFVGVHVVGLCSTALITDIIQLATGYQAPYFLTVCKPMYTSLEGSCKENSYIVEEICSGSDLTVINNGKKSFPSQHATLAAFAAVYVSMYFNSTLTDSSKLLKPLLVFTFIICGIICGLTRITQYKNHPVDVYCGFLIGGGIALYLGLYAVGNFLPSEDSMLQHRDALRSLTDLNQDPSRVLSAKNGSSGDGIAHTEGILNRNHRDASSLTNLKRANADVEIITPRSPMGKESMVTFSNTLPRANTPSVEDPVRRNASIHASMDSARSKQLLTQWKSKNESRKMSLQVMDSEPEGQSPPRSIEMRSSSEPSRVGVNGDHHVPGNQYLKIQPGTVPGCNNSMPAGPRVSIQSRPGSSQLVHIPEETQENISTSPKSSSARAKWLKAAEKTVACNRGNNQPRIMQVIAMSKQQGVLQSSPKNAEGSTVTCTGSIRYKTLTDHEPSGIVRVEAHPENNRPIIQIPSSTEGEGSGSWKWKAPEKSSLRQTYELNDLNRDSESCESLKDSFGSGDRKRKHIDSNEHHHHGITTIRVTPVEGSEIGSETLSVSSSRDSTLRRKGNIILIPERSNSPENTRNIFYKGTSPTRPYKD
Assay: co-IP; immunoprecipitation studies told only in the discussion, no figure; which protein was precipitated is not told

B1: Purinergic P2X7 receptor (receptor, UniProt Q64663 1-595)
chain: MPACCSWNDVFQYETNKVTRIQSVNYGTIKWILHMTVFSYVSFALMSDKLYQRKEPLISSVHTKVKGVAEVTENVTEGGVTKLVHGIFDTADYTLPLQGNSFFVMTNYLKSEGQEQKLCPEYPSRGKQCHSDQGCIKGWMDPQSKGIQTGRCIPYDQKRKTCEIFAWCPAEEGKEAPRPALLRSAENFTVLIKNNIDFPGHNYTTRNILPGMNISCTFHKTWNPQCPIFRLGDIFQEIGENFTEVAVQGGIMGIEIYWDCNLDSWSHRCQPKYSFRRLDDKYTNESLFPGYNFRYAKYYKENGMEKRTLIKAFGVRFDILVFGTGGKFDIIQLVVYIGSTLSYFGLATVCIDLIINTYASTCCRSRVYPSCKCCEPCAVNEYYYRKKCEPIVEPKPTLKYVSFVDEPHIWMVDQQLLGKSLQDVKGQEVPRPQTDFLELSRLSLSLHHSPPIPGQPEEMQLLQIEAVPRSRDSPDWCQCGNCLPSQLPENRRALEELCCRRKPGQCITTSELFSKIVLSREALQLLLLYQEPLLALEGEAINSKLRHCAYRSYATWRFVSQDMADFAILPSCCRWKIRKEFPKTQGQYSGFKYPY
  binding: no binding
